Assay results from article PMC8560770.
Results are given in words; binding and its absence hold for the method and conditions named. Binding seen in cells or lysates may run through a third protein. Here binding means that the protein was enriched with, or labelled near, the bait; the list need not be complete.

By UniProt entry, the sequences of proteins in these tests, tags left out.
UniProt P53618: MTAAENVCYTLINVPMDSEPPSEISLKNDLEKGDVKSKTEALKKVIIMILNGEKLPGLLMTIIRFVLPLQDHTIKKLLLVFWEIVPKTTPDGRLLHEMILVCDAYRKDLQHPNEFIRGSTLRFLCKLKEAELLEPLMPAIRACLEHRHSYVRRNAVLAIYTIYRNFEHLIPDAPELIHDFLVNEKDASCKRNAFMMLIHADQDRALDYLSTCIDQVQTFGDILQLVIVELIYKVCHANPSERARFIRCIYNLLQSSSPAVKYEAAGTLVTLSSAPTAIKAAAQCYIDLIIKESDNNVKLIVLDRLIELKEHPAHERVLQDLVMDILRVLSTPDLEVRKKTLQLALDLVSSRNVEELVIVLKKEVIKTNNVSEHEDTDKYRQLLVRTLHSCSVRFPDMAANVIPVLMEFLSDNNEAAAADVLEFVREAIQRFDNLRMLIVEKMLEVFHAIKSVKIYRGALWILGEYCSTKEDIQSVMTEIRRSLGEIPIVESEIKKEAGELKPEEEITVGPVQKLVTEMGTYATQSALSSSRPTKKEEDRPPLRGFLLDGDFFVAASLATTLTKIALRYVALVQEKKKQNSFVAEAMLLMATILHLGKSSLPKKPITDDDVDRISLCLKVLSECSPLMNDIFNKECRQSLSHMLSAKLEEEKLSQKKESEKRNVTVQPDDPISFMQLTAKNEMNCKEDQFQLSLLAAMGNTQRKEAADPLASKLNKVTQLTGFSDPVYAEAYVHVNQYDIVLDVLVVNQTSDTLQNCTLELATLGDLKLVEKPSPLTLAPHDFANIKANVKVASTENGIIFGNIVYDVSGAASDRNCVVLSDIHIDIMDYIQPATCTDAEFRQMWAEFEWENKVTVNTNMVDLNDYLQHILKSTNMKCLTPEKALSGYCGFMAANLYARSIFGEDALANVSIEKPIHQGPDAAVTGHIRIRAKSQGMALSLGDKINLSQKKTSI
UniProt P61923: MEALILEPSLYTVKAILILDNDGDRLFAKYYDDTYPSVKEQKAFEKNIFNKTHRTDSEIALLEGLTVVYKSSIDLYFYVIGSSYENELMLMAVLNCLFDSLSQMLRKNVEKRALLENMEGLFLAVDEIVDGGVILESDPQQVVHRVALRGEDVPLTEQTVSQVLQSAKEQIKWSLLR

T1: Gemin4 CaMKK2 Binding Motif peptide, biotinylated
T1 sequence (peptide, biotin): SLTSFSQNA


Molecular target: T1, Gemin4 CaMKK2 Binding Motif peptide, biotinylated
Test: affinity purification with mass spectrometry; biotinylated Gemin4 CBM peptide or control peptide as bait with lysate of vehicle- and androgen-treated LNCaP cells; TMT6plex labelling, mass spectrometry; only the target purified

| Molecule | binding |
| --- | --- |
| β-COP, endogenous in LNCaP cells (from UniProt P53618 1-953) | binds |
| ζ-COP, endogenous in LNCaP cells (from UniProt P61923 1-177) | binds |
| δ-COP (ARCN1), endogenous in LNCaP cells (protein, UniProt P48444 1-511) MVLLAAAVCTKAGKAIVSRQFVEMTRTRIEGLLAAFPKLMNTGKQHTFVETESVRYVYQPMEKLYMVLITTKNSNILEDLETLRLFSRVIPEYCRALEENEISEHCFDLIFAFDEIVALGYRENVNLAQIRTFTEMDSHEEKVFRAVRETQEREAKAEMRRKAKELQQARRDAERQGKKAPGFGGFGSSAVSGGSTAAMITETIIETDKPKVAPAPARPSGPSKALKLGAKGKEVDNFVDKLKSEGETIMSSSMGKRTSEATKMHAPPINMESVHMKIEEKITLTCGRDGGLQNMELHGMIMLRISDDKYGRIRLHVENEDKKGVQLQTHPNVDKKLFTAESLIGLKNPEKSFPVNSDVGVLKWRLQTTEESFIPLTINCWPSESGNGCDVNIEYELQEDNLELNDVVITIPLPSGVGAPVIGEIDGEYRHDSRRNTLEWCLPVIDAKNKSGSLEFSIAGQPNDFFPVQVSFVSKKNYCNIQVTKVTQVDGNSPVRFSTETTFLVDKYEIL | binds |
